PubChem BioAssay AID743255 (National Center for Advancing Translational Sciences (NCATS), 2014)
The whole screen tested about 390,000 compounds, of which about 910 (0.23%) were called active. The shares of active, inactive and inconclusive entries below differ from those in the screen. Calls follow the shape of the dose curve; as a rule, active = well fitted inhibition curve with a large enough effect; inconclusive = small, poorly fitted or top-dose-only effect; inactive = no such curve, though single readings can be large or run the other way. A potency beside an inconclusive call is a rough fit, not a confirmed value.

Chains of the proteins cited; added tags and fusions are not shown. Lines headed by an entry give the natural chain unless they say otherwise; changes in a name come on top.
UniProt O94782: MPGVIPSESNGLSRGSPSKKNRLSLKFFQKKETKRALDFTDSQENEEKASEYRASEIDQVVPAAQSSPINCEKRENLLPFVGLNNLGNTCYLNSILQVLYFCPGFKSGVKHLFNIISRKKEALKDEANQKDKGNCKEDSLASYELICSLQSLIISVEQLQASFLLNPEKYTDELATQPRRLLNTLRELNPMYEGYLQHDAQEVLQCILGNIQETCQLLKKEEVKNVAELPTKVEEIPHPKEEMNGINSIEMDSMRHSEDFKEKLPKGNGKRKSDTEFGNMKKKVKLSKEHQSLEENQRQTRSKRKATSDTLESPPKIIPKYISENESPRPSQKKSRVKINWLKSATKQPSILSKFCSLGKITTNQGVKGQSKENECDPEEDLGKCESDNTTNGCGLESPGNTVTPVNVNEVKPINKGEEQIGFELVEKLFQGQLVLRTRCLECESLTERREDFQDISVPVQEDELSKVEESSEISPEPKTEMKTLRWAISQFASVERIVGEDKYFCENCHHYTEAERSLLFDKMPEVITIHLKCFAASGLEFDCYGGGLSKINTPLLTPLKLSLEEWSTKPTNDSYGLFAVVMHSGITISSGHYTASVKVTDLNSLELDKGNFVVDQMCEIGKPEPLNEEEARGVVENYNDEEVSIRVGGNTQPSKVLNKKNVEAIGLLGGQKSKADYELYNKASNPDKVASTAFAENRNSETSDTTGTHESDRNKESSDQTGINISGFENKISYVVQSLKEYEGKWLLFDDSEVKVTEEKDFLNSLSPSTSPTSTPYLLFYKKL

Target: Ubiquitin carboxyl-terminal hydrolase 1 (Homo sapiens) (UniProt O94782)
Assay: Inhibitors of USP1/UAF1: Primary Screen; also: nearly all actives have a fitted effect of over 60% in size
Details: recombinant USP1/UAF1, Ub-Rhodamine cleavage fluorescence; activity change, negative = inhibition: at 57.1 µM (top of the series)
Outline: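 USP1/UAF1 complex at 1 nM was preincubated with compound for 15 min at room temperature, then Ub-Rho substrate (150nM final) was added. Fluorescence (480/540 nm) was read kinetically, 6 reads every 60 seconds.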
% is scaled to controls: 0 for no effect and ±100 for the full control effect; potency is read from the fitted curve at half-maximal effect.

| SMILES | Potency | activity change, negative = inhibition |
| --- | --- | --- |
| c1ccc(CN(CCN2CCOCC2)Cc2ccccc2)cc1 | inconclusive: 3.16 µM [inhibitor, partial curve] |  |
| C[C@@]12C(=O)N(c3cccc(F)c3)C(=O)N1[C@@H]1c3ccccc3OC[C@@H]1[C@H]2c1ccccc1 | inconclusive: 50.1 µM [inhibitor, partial curve, poor fit] |  |
| CCCN1C(=O)/C(=C/c2ccc(N3CCOCC3)cc2)NC1=S | inconclusive: 31.6 µM [inhibitor, partial curve] |  |
| C=C(C)C(=O)Nc1ccc(NC(C)C)cc1 | inconclusive: 44.7 µM [inhibitor, partial curve, poor fit] |  |
| CSc1ccc(/C=N/Nc2cccc(C(=O)O)c2)cc1 | inconclusive: 35.5 µM [inhibitor, single point] |  |
| O=[N+]([O-])c1ccc(CN2CCOCCOCCN(Cc3ccc([N+](=O)[O-])cc3)CCOCC2)cc1 |  | inactive: -3.69% |
| Cc1ccc(S(=O)(=O)/N=C2/NC(=O)/C(=C\c3cc(Br)cc(Br)c3O)S2)cc1 | inconclusive: 35.5 µM [inhibitor, partial curve, poor fit] |  |
| O=C(N/N=C/c1ccc[nH]1)c1cccnc1 |  | inactive: -29.5% |
| Cc1ccc2onc(CC(=O)Nc3cc(F)ccc3F)c2c1 | inconclusive: 0.794 µM [inhibitor, full curve, poor fit] |  |
| O=C(CCN1CCCO1)N1CCCC(Nc2cccc(F)c2)C1 (centres undefined) | inconclusive: 0.251 µM [inhibitor, full curve, poor fit] |  |
| O=C(O)C1=C(OCc2ccc(F)c(F)c2)C(=O)NCC1 |  | inactive: -15.9% |
| Cc1nc2ccn(Cc3cccnc3)c(=O)c2cc1C(=O)NCc1ccc(Cl)cc1 | inconclusive: 6.31 µM [inhibitor, single point] |  |
| CCOc1ccc(Nc2nc(Cc3nnc(SCC(=O)NCC4CCCO4)n3C)cs2)cc1 (centres undefined) | inconclusive: 35.5 µM [inhibitor, partial curve, poor fit] |  |
| Cc1nc2sc(C(c3ccc(F)cc3)N3CCN(C(=O)c4ccco4)CC3)c(O)n2n1 (centres undefined) |  | inactive: 1.92% |
| COc1ccc(-c2csc(N(CC3CCCO3)C(=O)c3ccccc3)n2)cc1 (centres undefined) | inconclusive: 31.6 µM [inhibitor, partial curve] |  |
| Nc1nc2cc(S(=O)(=O)N3CCOCC3)ccc2o1 | inconclusive: 8.91 µM [inhibitor, partial curve] |  |
| O=C(NC(=S)Nc1ccccc1N1CCCC1)c1ccc(F)cc1 | inconclusive: 12.6 µM [inhibitor, partial curve] |  |
| CCC1CCCCN1S(=O)(=O)c1ccc2c(c1)CCCN2C(C)=O (centres undefined) | inconclusive: 14.1 µM [inhibitor, single point] |  |
| CCc1ccccc1N(C)C(=O)Nc1cn(CC(C)C)c(=O)c2ccccc12 | inconclusive: 50.1 µM [inhibitor, partial curve] |  |
| COc1ccc(-n2c3nc4ccccc4nc3c3c(=N)oc(C)nc32)cc1 | inconclusive: 39.8 µM [inhibitor, partial curve, poor fit] |  |
| COc1cc(NC(=O)COC(=O)/C=C/c2c(C)nn(-c3ccc(F)cc3)c2Cl)cc(OC)c1 | inconclusive: 31.6 µM [inhibitor, partial curve] |  |
| Clc1ccc(C2NCCc3sccc32)cc1 (centres undefined) | inconclusive: 6.31 µM [inhibitor, single point] |  |

| SMILES | Potency | activity change, negative = inhibition |
| --- | --- | --- |
| N#C/C(=C/c1ccc(Br)s1)C(=O)NCCc1c[nH]c2ccccc12 |  | inactive: -18.7% |
| CC(=O)Nc1c(O)[nH]c2ccccc12 | inconclusive: 0.708 µM [inhibitor, partial curve, poor fit] |  |
| NC(=O)c1cc(NC(=O)CCNS(=O)(=O)c2cccc(C(F)(F)F)c2)cc(C(N)=O)c1 |  | inactive: -12.3% |
| C=CCNC(=O)COC(=O)c1nc2nccc(C)n2n1 |  | inconclusive: -27.7% [inhibitor] |
| CCc1ccc(/C=C2/SC(=S)N(CC(=O)Nc3nc4ccccc4s3)C2=O)cc1 | inconclusive: 50.1 µM [inhibitor, partial curve, poor fit] |  |
| CN1CCN(c2ccc(NC(=S)NC(=O)c3cccc4c(Br)cccc34)cc2)CC1 |  | inactive: -19.4% |
| CCOC(=O)c1c(NC(=O)CN2CCCCC2)sc2c1CCCC2O (centres undefined) | inconclusive: 44.7 µM [inhibitor, partial curve, poor fit] |  |
| CCCCOc1ccc(-c2c(C#N)c(N)nc(SCC(N)=O)c2C#N)cc1 |  | inactive: -12.9% |
| COc1cccc2cc(-c3cn4ccc(C)cc4n3)c(=O)oc12 | inconclusive: 28.2 µM [inhibitor, single point] |  |
| CN(C)c1ccc(/C=C(\Cl)c2nc3ccccc3s2)cc1 | inconclusive: 31.6 µM [inhibitor, partial curve] |  |
| CCCCCCCNC(=O)C1(CC2CC(c3cccc(Br)c3)=NO2)CCN(C(=O)c2cc(OCC)c(OCC)c(OCC)c2)CC1 (centres undefined) | inconclusive: 44.7 µM [inhibitor, partial curve] |  |
| CCc1oc2ccccc2c1C(=O)c1cc(Br)c(O)c(Br)c1 | inconclusive: 44.7 µM [inhibitor, partial curve, poor fit] |  |
| CCc1cccc(CC)c1N1C(=O)C2=C(SCCCS2)C1=O | inconclusive: 31.6 µM [inhibitor, partial curve] |  |
| CCOC(=O)/C(=C/c1ccc(OC(F)F)cc1)C1=Nn2c(nnc2-c2ccc(Cl)cc2)SC1 |  | inactive: -22.7% |
| CCCC1=Nc2cc(C(=O)NCc3ccccc3)ccc2Sc2ccccc21 | inconclusive: 2.82 µM [inhibitor, full curve] |  |
| COc1ccc(OC)c(C2CC(=O)N3CN(c4cccc(Cl)c4)CSC3=C2C#N)c1 (centres undefined) | inconclusive: 8.91 µM [inhibitor, partial curve] |  |
| CCCCN(C)S(=O)(=O)c1ccc(C(=O)Nc2sc3c(c2C(=O)OCC)CCN(C(C)C)C3)cc1 | inconclusive: 35.5 µM [inhibitor, partial curve, poor fit] |  |
| COc1ccc(C(C)=O)cc1CSc1nnc(Nc2ccccc2)s1 |  | inactive: -10.8% |
| CCOC(=O)c1c(NC(=O)c2ccc(S(=O)(=O)N3CCCC(C)C3)cc2)sc2c1CC(C)(C)NC2(C)C (centres undefined) | inconclusive: 35.5 µM [inhibitor, partial curve, poor fit] |  |
| O=C1Nc2cc(C(=O)N3CCN(c4ccc(F)cc4)CC3)ccc2NC1CSCc1cccc(F)c1 (centres undefined) | inconclusive: 44.7 µM [inhibitor, partial curve] |  |
| CN1C(=O)CC(Nc2cccc3cccc(N)c23)C1=O (centres undefined) | inconclusive: 39.8 µM [inhibitor, partial curve] |  |
| C[C@H](CO)N1C[C@H](C)[C@@H](CN(C)C(=O)Nc2ccc3c(c2)OCO3)Oc2ccc(NC(=O)CCN3CCOCC3)cc2C1=O | inconclusive: 0.251 µM [inhibitor, full curve, poor fit] |  |

| SMILES | Potency | activity change, negative = inhibition |
| --- | --- | --- |
| N#CC(C(=O)c1ccccc1)=C1SCCS1 | inconclusive: 39.8 µM [inhibitor, single point] |  |
| COC(=O)c1ccc(S(=O)(=O)NCc2ccc(S(N)(=O)=O)cc2)n1C |  | inactive: 5.25% |
| N#Cc1cc(-c2ccccc2)oc1/N=C/c1ccccc1O |  | inactive: -8.52% |
| CC(=O)Nc1ccc(NC(=O)c2ccc(C3SCC(=O)N3CCc3ccccc3)cc2)cc1 (centres undefined) |  | inactive: -17.9% |
| O=C(C1CC(=O)N(C2CCCC2)C1)N1CCN(c2ccccc2F)CC1 (centres undefined) | inconclusive: 44.7 µM [inhibitor, partial curve, poor fit] |  |
| COc1ccc(S(=O)(=O)c2cn(C)c3cc(N4CCCCCC4)c(F)cc3c2=O)cc1 |  | inactive: -0.0396% |
| CCOC(=O)c1cc(NC(=O)c2ccccc2)c(=O)n2c1oc1ccc(Cl)cc12 |  | inactive: -14.6% |
| O=C(C1=C[C@@H](c2csc3ccccc23)C[C@@H](OCc2ccc(CO)cc2)O1)N1CCN(Cc2ccc3c(c2)OCO3)CC1 | inconclusive: 56.2 µM [inhibitor, partial curve, poor fit] |  |
| COc1ccccc1Cn1c(C2CC(=O)N(c3ccccc3OC)C2)nc2ccccc21 (centres undefined) | inconclusive: 7.94 µM [inhibitor, partial curve] |  |
| Cc1[nH]cnc1CSCc1ccc(Cl)cc1 |  | inactive: -12.9% |
| COC(=O)[C@]1(C)N[C@H](c2ccc(-c3ccc(Cl)c(Cl)c3)cc2)[C@@H]2C(=O)N(C)C(=O)[C@@H]21 | inconclusive: 0.355 µM [inhibitor, full curve, poor fit] |  |
| Cc1ccc(C)c(NS(=O)(=O)c2ccc(OCC(=O)NCC3CCCO3)cc2)c1 (centres undefined) |  | inactive: -6.52% |
| Cc1cccc(NC(=O)CSc2nnc(-c3cc(C)[nH]n3)n2N)c1 | inconclusive: 56.2 µM [inhibitor, partial curve, poor fit] |  |
| CNc1snc(C)c1C(=O)OCC(=O)N(C)c1ccccc1 |  | inactive: -14.2% |
| COc1ccc(NC(=O)c2ccccc2N(Cc2ccccc2)S(C)(=O)=O)cc1OC | inconclusive: 6.31 µM [inhibitor, single point] |  |
| COc1ccccc1N1CCN(S(=O)(=O)c2cc(C(=O)Nc3ccc(Oc4ccccc4)cc3)ccc2F)CC1 | inconclusive: 0.631 µM [inhibitor, full curve, poor fit] |  |
| Cn1c(Cn2c(=O)sc3ccccc32)nnc1SCC(=O)N1CCCc2ccccc21 | inconclusive: 44.7 µM [inhibitor, partial curve] |  |
| CCCCN1C(=N)N([C@@H](C)CN2CCC[C@H]2CN2C(N)=NC[C@H]2C(C)C)C[C@H]1[C@H](C)CC | inconclusive: 8.91 µM [inhibitor, partial curve, poor fit] |  |
| Cc1ccc2nc(-c3ccc(Cl)c(NC(=O)COc4ccc([N+](=O)[O-])cc4)c3)oc2c1 |  | inactive: -18.5% |
| CNc1ccc(Br)cc(C(=O)/C=C/c2cccc(Cl)c2Cl)c1=O | inconclusive: 28.2 µM [inhibitor, partial curve] |  |
